Drawing on patent US11371077B2, “High throughput cell-based screening for aptamers” (MeiraGTx UK II Limited, priority 2016, dated 2022), this text covers fold induction for 1 compound.

Molecules are shown by their SMILES.

One experiment deals with xpt-G17 riboswitch. Briefly: Luciferase reporter assay, xpt-G17 riboswitch, transfected HEK 293 cells. The class given is cell-based. Conditions: Homo sapiens, HEK293, Prestwick library compounds at 100 μM, preliminary screen. From the text:
(§1) A truncated human beta-globin intron sequence was synthesized and inserted in the coding sequence of a firefly luciferase gene. A mutant human DHFR exon 2 was synthesized and inserted in the middle of this truncated beta-globin intron sequence using Golden gate cloning strategy. Aptamers including xpt-G/A^1, ydhl-G/A^2, yxj^3, add^4, gdg6-G/A^5 (citations for the aptamers are incorporated herein by reference) were synthesized as oligonucleotides (“oligos”) with 4 nucleotide overhang at the 5′ end that are complementary to two different BsaI sites individually (IDT), annealed and ligated to BsaI-digested mDHFR-Luci-acceptor vector.
3.5×10^4 HEK 293 cells were plated in a 96-well flat bottom plate the day before transfection. Plasmid DNA (500 ng) was added to a tube or a 96-well U-bottom plate. […]
24 hours after media change, plates were removed from the incubator, and equilibrated to RT for several minutes on a lab bench, then aspirated. […] Following a 5 min incubation at RT, luminescence was measured using a Tecan machine with 500 mSec read time. The luciferase activity was expressed as mean relative light unit (RLU)±S.D., and fold induction was calculated as the luciferase activity obtained with guanine treatment divided by luciferase activity obtained without guanine treatment.

The next experiment has as its system add-G6 riboswitch. Nature of the experiment: cells. The class given is cell-based. Conditions: Homo sapiens, HEK293, Prestwick library compounds at 100 μM, HEK 293, read-out: Fold Induction of luciferase activity.
Excerpt: as §1
3.5×10^4 HEK 293 cells were plated in a 96-well flat bottom plate the day before transfection. Plasmid DNA (500 ng) was added to a tube or a 96-well U-bottom plate. […] Then, 50 μL of this diluted transfection reagent was added to the DNA, mixed, and incubated at RT for 20 min. Finally, 7 μL of this solution was added to a well of cells in the 96-well plate.
24 hours after media change, plates were removed from the incubator, and equilibrated to RT for several minutes on a lab bench, then aspirated. Glo-lysis buffer (Promega, 100 μL, RT) was added, and the plates maintained at RT for at least 5 minutes. […] Following a 5 min incubation at RT, luminescence was measured using a Tecan machine with 500 mSec read time. […]

As for `C(=C\c1ccccc1)/CN1CCN(C(c2ccccc2)c2ccccc2)CC1` [Cinnarizine], the fold induction at 100 µM stood at 3.5 in the experiment on xpt-G17 riboswitch and 3.6 with add-G6 riboswitch.
